From US20030223975
Construct, isoform or probe ends are uncertain for at least one entry. Where cells or extracts were used, other partners may take part.

The chains behind the UniProt entries cited, without tags or fusion partners. A line that says so, or that is headed by a name, gives the form on record, which may keep a tag or linker.
UniProt P67809, other isoform, or with tags, fused parts or gaps: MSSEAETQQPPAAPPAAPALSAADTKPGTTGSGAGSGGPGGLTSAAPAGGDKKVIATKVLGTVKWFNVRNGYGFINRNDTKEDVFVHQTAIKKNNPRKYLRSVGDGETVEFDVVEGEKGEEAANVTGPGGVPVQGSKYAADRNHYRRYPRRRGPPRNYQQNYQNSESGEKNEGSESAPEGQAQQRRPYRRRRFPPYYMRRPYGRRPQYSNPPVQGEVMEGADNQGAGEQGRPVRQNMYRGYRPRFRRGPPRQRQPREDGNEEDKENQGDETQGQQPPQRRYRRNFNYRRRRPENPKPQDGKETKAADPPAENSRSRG
UniProt P62961, other isoform, or with tags, fused parts or gaps: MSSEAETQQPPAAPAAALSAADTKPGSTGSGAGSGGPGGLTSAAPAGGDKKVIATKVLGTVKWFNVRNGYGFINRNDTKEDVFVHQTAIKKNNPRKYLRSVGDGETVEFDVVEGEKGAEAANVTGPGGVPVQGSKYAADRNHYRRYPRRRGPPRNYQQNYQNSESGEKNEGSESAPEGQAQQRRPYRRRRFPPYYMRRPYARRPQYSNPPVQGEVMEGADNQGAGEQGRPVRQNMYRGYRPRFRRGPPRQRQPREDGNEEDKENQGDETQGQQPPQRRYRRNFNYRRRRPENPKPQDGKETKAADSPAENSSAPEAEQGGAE

Key:
[1] = target: YB-1 in HepG2 nuclear extract (Homo sapiens) (UniProt P67809); assay: pull-down; conditions: more YB-1 retained than from Rat1 extract; protein in an extract; label: 32P (EMSA) or biotin (pull-down); variant of PTP1B enhancer -167/-132
[2] = target: YB-1 in Rat1 nuclear extract (Rattus norvegicus) (UniProt P62961); assay: pull-down; conditions: less YB-1 retained than from HepG2 extract; protein in an extract; label: 32P (EMSA) or biotin (pull-down); variant of PTP1B enhancer -167/-132

“AGATATCTCGCGGTGCTGGGGCCA (double strand) [PTP1B enhancer -155/-132]”: binds [1]; binds [2].
